# Reference: PubChem BioAssay AID1259254 (NCATS, 2017)
# Aim: 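Gene knock-downs that lead to re-replication, shown by excess G2 DNA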 (primary screen)
# Cells: human HCT116 colorectal cancer cells
# Reagents: single siRNA against human genes
# Timing: 3 days
# Detection: 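Nuclei stained with Hoechst and imaged; cell-cycle phase assigned by DNA content; G2 share scaled per plate, non-targeting siRNA 0%, GMNN siRNA 100%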
# Scale: G2 robust z-score and G2 cells, % of GMNN control: higher = more G2 cells, more excess DNA replication
# Call rule: 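Active siRNAs have a G2 robust z of 5 or more median absolute deviations over the median, which in these data means about 38% or higher of GMNN control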
# The deposit covers about 59,000 reagents; shown is a random part of them. Over the whole deposit, about 1,550 (2.6%) are marked active. 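G2 share is only a proxy for re-replication; each gene was hit by three separate siRNAs, and active genes were retested.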 The numbers tell different reagents against one gene apart. Further read-outs or replicates are left out here. Reagent sequences are not shown. Not stated in the record: the amount of reagent.
The opening 2 entries, ahead of the listing:
Target gene,reagent no.,G2 robust z-score,"G2 cells, % of GMNN control",call
SEMA3F,1,1.57,14,inactive
SEMA3F,2,-0.635,-1.5,inactive

The list itself, from the first entry:
Target gene,reagent no.,G2 robust z-score,"G2 cells, % of GMNN control",call
SEMA3F,1,1.57,14,inactive
SEMA3F,2,-0.635,-1.5,inactive
SEMA3F,3,-0.997,-4.05,inactive
PTPRT,1,3.3,26.2,inactive
PTPRT,2,0.82,8.74,inactive
PTPRT,3,0.434,6.02,inactive
SLCO3A1,1,-0.0314,2.75,inactive
SLCO3A1,2,-0.677,-1.79,inactive
SLCO3A1,3,-1.59,-8.22,inactive
TPST1,1,0.543,6.79,inactive
TPST1,2,-0.916,-3.47,inactive
TPST1,3,2.58,21.1,inactive
PTGDR,1,1.09,10.6,inactive
PTGDR,2,1.28,12,inactive
PTGDR,3,-0.606,-1.3,inactive
TNFRSF19,1,-0.624,-1.42,inactive
TNFRSF19,2,-0.307,0.806,inactive
TNFRSF19,3,-0.14,1.98,inactive
PLA2G4C,1,1.14,11,inactive
PLA2G4C,2,0.695,7.86,inactive
PLA2G4C,3,-0.513,-0.643,inactive
TNFRSF11A,1,-0.237,1.3,inactive
TNFRSF11A,2,2.48,20.4,inactive
TNFRSF11A,3,2.89,23.3,inactive
PROSER3,1,2.28,19,inactive
PROSER3,2,-0.324,0.686,inactive
PROSER3,3,0.00296,2.99,inactive
BCL2L2,1,-0.965,-3.82,inactive
BCL2L2,2,4.13,32,inactive
BCL2L2,3,0.206,4.41,inactive
